From the supplement of paper PMC10849652
This is one part of the list. Residues, ends and D or L forms follow the SMILES beside them. *: point of attachment. Cbz = O=C(OCc1ccccc1)*

Amino acid sequences for entries named in this document (tags omitted). A change or cut given only in a name is not applied to a line headed by its entry.
UniProt Q96S44: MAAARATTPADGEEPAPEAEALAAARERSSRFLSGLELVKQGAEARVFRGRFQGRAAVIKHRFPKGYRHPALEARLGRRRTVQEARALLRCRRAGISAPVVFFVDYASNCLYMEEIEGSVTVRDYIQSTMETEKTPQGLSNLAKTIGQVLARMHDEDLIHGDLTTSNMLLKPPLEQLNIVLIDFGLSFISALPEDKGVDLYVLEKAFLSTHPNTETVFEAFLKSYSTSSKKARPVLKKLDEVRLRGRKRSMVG
UniProt P29144: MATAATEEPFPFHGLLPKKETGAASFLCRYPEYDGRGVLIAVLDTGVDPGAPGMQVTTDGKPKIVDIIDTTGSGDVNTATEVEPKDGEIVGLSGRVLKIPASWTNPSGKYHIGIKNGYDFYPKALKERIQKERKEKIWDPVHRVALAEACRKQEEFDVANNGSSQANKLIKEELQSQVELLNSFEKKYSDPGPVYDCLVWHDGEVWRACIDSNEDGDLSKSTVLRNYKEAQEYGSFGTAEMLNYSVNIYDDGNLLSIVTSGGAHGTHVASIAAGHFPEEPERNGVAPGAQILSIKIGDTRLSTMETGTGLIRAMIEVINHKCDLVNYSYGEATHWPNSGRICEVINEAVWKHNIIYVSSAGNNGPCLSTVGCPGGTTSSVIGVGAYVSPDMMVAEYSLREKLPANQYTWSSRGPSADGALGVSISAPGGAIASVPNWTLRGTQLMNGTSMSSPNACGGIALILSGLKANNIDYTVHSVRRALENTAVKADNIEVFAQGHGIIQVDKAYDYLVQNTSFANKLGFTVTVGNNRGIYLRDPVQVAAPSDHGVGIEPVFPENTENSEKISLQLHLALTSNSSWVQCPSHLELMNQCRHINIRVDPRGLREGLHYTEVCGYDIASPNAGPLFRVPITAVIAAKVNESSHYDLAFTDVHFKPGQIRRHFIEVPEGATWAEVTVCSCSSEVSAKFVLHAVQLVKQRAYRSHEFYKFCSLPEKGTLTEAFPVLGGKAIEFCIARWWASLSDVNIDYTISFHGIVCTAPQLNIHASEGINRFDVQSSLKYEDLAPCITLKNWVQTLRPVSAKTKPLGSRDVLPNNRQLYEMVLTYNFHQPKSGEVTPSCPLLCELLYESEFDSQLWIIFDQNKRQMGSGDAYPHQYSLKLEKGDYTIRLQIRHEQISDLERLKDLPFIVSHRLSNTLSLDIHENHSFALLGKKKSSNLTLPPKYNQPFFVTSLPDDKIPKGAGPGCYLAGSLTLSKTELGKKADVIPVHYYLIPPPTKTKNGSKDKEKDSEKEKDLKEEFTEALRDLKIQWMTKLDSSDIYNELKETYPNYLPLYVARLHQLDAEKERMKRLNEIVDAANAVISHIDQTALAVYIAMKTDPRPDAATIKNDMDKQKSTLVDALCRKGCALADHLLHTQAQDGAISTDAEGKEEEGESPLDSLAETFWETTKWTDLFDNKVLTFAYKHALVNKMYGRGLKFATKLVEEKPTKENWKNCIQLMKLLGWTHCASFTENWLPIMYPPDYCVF
UniProt P20333, whole entry, looked up: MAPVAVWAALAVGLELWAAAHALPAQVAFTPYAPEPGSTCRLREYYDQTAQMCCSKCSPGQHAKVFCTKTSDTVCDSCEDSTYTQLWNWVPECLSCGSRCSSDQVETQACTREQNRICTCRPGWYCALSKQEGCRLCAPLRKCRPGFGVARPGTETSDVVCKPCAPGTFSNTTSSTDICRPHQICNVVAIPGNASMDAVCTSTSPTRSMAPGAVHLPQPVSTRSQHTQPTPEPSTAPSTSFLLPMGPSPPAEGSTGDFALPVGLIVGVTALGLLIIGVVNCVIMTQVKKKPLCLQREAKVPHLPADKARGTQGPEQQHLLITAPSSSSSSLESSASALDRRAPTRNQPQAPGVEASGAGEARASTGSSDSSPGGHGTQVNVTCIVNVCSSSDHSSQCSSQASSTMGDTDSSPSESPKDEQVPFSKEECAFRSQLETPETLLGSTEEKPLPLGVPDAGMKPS
UniProt Q9Y3Q8: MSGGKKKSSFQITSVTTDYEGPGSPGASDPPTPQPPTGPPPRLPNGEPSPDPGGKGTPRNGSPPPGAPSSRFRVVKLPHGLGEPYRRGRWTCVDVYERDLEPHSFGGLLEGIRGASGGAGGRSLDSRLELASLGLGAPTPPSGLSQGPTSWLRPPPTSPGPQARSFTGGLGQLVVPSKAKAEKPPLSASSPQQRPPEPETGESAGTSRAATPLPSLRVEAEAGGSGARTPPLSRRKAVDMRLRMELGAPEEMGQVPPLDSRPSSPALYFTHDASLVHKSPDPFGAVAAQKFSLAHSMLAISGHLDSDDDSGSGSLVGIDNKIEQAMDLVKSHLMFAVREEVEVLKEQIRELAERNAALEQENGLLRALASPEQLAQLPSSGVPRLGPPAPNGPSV
UniProt Q9NS69: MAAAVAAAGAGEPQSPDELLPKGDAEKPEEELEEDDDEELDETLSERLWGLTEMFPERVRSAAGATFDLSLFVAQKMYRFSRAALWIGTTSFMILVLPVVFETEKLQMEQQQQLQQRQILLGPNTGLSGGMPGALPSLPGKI
UniProt Q14258, whole entry, looked up: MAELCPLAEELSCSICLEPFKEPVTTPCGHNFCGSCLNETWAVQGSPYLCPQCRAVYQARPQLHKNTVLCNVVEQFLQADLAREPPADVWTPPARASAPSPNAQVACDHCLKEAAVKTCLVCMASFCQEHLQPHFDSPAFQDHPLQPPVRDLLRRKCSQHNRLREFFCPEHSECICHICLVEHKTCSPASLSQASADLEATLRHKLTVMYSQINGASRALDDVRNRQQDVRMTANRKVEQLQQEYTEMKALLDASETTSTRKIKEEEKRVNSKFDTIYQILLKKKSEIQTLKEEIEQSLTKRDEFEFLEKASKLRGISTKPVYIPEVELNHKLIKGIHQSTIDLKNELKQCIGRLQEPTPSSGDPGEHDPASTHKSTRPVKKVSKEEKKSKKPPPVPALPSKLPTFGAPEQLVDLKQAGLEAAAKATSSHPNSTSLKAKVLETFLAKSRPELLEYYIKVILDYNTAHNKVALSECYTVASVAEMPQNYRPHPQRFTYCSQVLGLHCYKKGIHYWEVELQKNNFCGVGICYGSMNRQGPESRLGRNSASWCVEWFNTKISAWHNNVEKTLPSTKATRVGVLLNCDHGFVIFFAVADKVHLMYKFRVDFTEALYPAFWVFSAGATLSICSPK
UniProt Q8WVT3: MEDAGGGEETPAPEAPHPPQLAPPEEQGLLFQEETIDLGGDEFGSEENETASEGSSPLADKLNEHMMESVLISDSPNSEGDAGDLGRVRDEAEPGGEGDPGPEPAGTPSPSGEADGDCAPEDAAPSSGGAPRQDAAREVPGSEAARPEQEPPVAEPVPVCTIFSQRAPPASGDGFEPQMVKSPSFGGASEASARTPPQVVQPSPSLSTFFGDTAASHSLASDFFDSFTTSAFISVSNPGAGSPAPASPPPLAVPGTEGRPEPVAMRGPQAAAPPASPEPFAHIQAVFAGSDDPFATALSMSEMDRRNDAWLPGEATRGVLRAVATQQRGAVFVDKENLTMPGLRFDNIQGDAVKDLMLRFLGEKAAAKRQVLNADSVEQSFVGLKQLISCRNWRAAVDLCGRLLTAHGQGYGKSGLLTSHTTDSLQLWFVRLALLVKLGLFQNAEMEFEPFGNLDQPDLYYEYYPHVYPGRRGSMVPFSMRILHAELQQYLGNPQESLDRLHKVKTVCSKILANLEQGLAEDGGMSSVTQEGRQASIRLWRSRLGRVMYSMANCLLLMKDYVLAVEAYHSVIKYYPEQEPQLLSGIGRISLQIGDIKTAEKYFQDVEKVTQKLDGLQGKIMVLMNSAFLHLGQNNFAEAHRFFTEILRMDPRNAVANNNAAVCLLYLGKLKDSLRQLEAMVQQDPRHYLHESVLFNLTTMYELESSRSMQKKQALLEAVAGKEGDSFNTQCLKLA
UniProt Q7Z4G4: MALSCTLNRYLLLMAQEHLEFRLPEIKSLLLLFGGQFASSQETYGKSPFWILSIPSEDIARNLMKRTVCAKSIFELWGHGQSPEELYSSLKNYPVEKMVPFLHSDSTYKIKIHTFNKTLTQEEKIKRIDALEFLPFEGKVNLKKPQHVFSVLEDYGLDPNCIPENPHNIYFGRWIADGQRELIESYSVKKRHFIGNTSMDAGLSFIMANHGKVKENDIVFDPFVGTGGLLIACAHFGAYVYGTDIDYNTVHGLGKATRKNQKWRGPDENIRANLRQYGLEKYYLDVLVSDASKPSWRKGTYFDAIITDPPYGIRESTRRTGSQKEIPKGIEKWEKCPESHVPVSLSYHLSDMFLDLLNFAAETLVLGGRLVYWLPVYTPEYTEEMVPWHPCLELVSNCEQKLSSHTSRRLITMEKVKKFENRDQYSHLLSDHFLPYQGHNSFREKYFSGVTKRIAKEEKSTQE
UniProt Q9Y5S1: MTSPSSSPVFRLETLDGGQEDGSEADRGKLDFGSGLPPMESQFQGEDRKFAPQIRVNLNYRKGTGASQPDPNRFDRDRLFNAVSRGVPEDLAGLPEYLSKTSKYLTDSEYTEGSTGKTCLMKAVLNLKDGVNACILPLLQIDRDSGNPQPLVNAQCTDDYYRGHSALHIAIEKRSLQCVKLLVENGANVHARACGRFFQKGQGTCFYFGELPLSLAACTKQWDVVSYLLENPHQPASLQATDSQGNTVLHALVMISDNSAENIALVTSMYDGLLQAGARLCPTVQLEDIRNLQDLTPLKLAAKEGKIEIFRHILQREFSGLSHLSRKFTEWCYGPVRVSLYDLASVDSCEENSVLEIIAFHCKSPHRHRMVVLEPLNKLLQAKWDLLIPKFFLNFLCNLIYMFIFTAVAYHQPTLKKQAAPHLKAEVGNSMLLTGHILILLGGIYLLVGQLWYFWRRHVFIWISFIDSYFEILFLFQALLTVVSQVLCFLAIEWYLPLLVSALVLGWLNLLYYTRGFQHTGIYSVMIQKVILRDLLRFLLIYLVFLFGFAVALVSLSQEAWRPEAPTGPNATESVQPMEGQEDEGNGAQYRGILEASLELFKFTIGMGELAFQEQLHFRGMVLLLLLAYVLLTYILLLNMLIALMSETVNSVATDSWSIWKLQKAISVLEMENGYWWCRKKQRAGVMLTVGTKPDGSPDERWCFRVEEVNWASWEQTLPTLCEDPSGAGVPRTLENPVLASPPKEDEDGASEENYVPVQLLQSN
UniProt Q5JU69: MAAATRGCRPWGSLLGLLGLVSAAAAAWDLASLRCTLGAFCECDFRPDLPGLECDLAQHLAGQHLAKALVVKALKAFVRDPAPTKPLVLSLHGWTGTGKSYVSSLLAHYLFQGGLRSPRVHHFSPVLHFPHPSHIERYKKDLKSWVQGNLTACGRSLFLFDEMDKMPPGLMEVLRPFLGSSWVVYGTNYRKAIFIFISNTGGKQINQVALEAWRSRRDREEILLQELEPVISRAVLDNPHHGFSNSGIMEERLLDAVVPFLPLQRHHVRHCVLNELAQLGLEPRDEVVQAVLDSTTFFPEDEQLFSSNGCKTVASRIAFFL
UniProt Q15650: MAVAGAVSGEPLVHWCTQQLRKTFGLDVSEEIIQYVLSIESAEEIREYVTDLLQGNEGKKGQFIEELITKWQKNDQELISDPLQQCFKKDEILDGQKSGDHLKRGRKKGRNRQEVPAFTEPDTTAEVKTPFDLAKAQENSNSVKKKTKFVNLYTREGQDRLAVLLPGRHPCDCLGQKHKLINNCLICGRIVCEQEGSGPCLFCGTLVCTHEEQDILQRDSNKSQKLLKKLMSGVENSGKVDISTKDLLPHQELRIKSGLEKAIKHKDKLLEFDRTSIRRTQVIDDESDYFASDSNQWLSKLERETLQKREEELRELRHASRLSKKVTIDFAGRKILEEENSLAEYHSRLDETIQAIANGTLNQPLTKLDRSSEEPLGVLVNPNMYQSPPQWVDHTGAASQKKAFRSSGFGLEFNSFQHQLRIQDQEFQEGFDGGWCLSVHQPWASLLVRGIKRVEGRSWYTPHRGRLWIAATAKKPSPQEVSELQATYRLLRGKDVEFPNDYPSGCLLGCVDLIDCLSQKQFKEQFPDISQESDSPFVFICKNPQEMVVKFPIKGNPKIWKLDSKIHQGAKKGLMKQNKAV
UniProt Q5JTV8: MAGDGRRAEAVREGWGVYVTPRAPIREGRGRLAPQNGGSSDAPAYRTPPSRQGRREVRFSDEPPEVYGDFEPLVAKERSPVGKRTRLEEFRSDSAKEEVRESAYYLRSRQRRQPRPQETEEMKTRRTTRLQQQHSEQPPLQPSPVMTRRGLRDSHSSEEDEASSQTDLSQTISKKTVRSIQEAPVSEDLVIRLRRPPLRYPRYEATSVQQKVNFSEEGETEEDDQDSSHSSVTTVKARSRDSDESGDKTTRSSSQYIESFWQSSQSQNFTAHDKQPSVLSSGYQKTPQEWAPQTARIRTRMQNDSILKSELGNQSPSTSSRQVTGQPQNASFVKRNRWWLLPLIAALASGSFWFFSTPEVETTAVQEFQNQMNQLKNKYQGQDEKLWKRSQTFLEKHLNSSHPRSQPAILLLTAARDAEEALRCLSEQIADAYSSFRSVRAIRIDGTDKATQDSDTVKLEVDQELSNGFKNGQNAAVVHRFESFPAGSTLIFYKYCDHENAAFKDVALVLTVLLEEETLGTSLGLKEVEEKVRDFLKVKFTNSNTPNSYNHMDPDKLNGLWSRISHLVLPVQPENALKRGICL

Compound: CC(C)C[C@@H](C=O)NC(=O)[C@H](CC(C)C)NC(=O)[C@H](CC(C)C)NC(=O)OCc1ccccc1
Assay: log2 fold change, soluble protein after heating vs DMSO (PISA); higher = thermal stabilisation; K562 cells, 10 uM, 30 min; active = over 0.2 and 3.5 SD of the protein, either way, in both replicates (recomputed)
Outline: (§1)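 K562 cells at 2×10^6 cells/mL were exposed to 10 μM compound for 30 min, then aliquots were heated for 3 min across 48°C-58°C, pooled, and extracted in PBS containing 0.5% NP-40 at 4°C. The supernatant after 21,000xg for 90 min was taken as soluble protein and measured by TMTpro 16plex LC-MS/MS with channel sums equalised. Thermal stability is reported relative to control samples, with values from duplicates. Fold changes are given on a log2 scale.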

Target | log2 fold change
TP53RK (UniProt Q96S44) | inactive: -0.047
TOR4A (UniProt Q9NXH8) | inactive: 0.041
TRIM56 (UniProt Q9BRZ2) | inactive: 0.166
TRAPPC5 (UniProt Q8IUR0) | inactive: 0.038
TPST2 (UniProt O60704) | inactive: 0.001
TRMT13 (UniProt Q9NUP7) | inactive: 0
TPP2 (UniProt P29144) | inactive: 0.047
TNFRSF1B (UniProt P20333) | inactive: 0.08
TSC22D4 (UniProt Q9Y3Q8) | inactive: 0.028
TSC22D2 (UniProt O75157) | inactive: 0.092
TSEN15 (UniProt Q8WW01) | inactive: 0.012
TRMT6 (UniProt Q9UJA5) | inactive: 0.144
TOMM22 (UniProt Q9NS69) | inactive: -0.053
TRAPPC10 (UniProt P48553) | inactive: 0.023
TRIM25 (UniProt Q14258) | inactive: 0.191
TPM3 isoform 2 (UniProt P06753) | inactive: 0.003

Target | log2 fold change
TRAPPC12 (UniProt Q8WVT3) | inactive: 0.057
TRMU (UniProt O75648) | inactive: 0.074
TP53BP2 isoform 3 (UniProt Q13625) | inactive: 0.069
TRMT11 (UniProt Q7Z4G4) | inactive: 0.013
TOR1AIP2 (UniProt Q8NFQ8) | inactive: 0.004
TPM3 isoform 4 (UniProt P06753) | inactive: -0.001
TRPV2 (UniProt Q9Y5S1) | inactive: -0.056
TPM1 (UniProt H7BYY1) | inactive: -0.023
TPCN1 isoform 3 (UniProt Q9ULQ1) | inactive: -0.049
TOR2A (UniProt Q5JU69) | inactive: 0.033
TRIP4 (UniProt Q15650) | inactive: 0.062
TOR1AIP1 isoform 3 (UniProt Q5JTV8) | inactive: -0.022
TOR1A (UniProt O14656) | inactive: -0.017
TPI1 (UniProt P60174) | inactive: 0.039
TRIR (UniProt Q9BQ61) | inactive: 0.053
TOP2B (UniProt Q02880) | inactive: 0.274

Compound: CC(C)N(C[C@H]1O[C@@H](n2cnc3c(N)ncnc32)[C@H](O)[C@@H]1O)[C@H]1C[C@@H](CCc2nc3cc(C(C)(C)C)ccc3[nH]2)C1 [pinometostat]
Assay: as above
Outline: as §1

Target | log2 fold change
TP53RK (UniProt Q96S44) | inactive: -0.025
TOR4A (UniProt Q9NXH8) | inactive: 0.079
TRIM56 (UniProt Q9BRZ2) | inactive: 0.255
TRAPPC5 (UniProt Q8IUR0) | inactive: 0.078
TPST2 (UniProt O60704) | inactive: 0.005
TRMT13 (UniProt Q9NUP7) | inactive: 0.003
TPP2 (UniProt P29144) | inactive: 0.242
TNFRSF1B (UniProt P20333) | inactive: 0.038
TSC22D4 (UniProt Q9Y3Q8) | inactive: -0.002
TSC22D2 (UniProt O75157) | inactive: -0.013
TSEN15 (UniProt Q8WW01) | inactive: 0.054
TRMT6 (UniProt Q9UJA5) | inactive: 0.176
TOMM22 (UniProt Q9NS69) | inactive: -0.11
TRAPPC10 (UniProt P48553) | inactive: 0.087
TRIM25 (UniProt Q14258) | inactive: 0.248
TPM3 isoform 2 (UniProt P06753) | inactive: -0.027

Target | log2 fold change
TRAPPC12 (UniProt Q8WVT3) | inactive: 0.073
TRMU (UniProt O75648) | inactive: -0.031
TP53BP2 isoform 3 (UniProt Q13625) | inactive: 0.145
TRMT11 (UniProt Q7Z4G4) | inactive: -0.084
TOR1AIP2 (UniProt Q8NFQ8) | inactive: 0.026
TPM3 isoform 4 (UniProt P06753) | inactive: -0.024
TRPV2 (UniProt Q9Y5S1) | inactive: -0.02
TPM1 (UniProt H7BYY1) | inactive: -0.061
TPCN1 isoform 3 (UniProt Q9ULQ1) | inactive: -0.091
TOR2A (UniProt Q5JU69) | inactive: -0.026
TRIP4 (UniProt Q15650) | inactive: 0.078
TOR1AIP1 isoform 3 (UniProt Q5JTV8) | inactive: -0.022
TOR1A (UniProt O14656) | inactive: 0.001
TPI1 (UniProt P60174) | inactive: -0.08
TRIR (UniProt Q9BQ61) | inactive: -0.072
TOP2B (UniProt Q02880) | inactive: 0.492

Compound: CC1=C(C(CC(=O)N1)C2=CC=C(C=C2)C(F)(F)F)C(=O)NC3=C(C=C4C(=C3)C=NN4)F
Assay: as above
Outline: as §1

Target | log2 fold change
TP53RK (UniProt Q96S44) | inactive: 0.001
TOR4A (UniProt Q9NXH8) | inactive: -0.044
TRIM56 (UniProt Q9BRZ2) | inactive: -0.002
TRAPPC5 (UniProt Q8IUR0) | inactive: 0.028
TPST2 (UniProt O60704) | inactive: -0.012
TRMT13 (UniProt Q9NUP7) | inactive: 0.034
TPP2 (UniProt P29144) | inactive: 0.14
TNFRSF1B (UniProt P20333) | inactive: -0.013
TSC22D4 (UniProt Q9Y3Q8) | inactive: 0.001
TSC22D2 (UniProt O75157) | inactive: 0
TSEN15 (UniProt Q8WW01) | inactive: -0.007
TRMT6 (UniProt Q9UJA5) | inactive: 0.089
TOMM22 (UniProt Q9NS69) | inactive: 0.028
TRAPPC10 (UniProt P48553) | inactive: 0.028
TRIM25 (UniProt Q14258) | inactive: 0.033
TPM3 isoform 2 (UniProt P06753) | inactive: 0.065

Target | log2 fold change
TRAPPC12 (UniProt Q8WVT3) | inactive: 0.027
TRMU (UniProt O75648) | inactive: 0.013
TP53BP2 isoform 3 (UniProt Q13625) | inactive: -0.285
TRMT11 (UniProt Q7Z4G4) | inactive: -0.041
TOR1AIP2 (UniProt Q8NFQ8) | inactive: 0.084
TPM3 isoform 4 (UniProt P06753) | inactive: 0.037
TRPV2 (UniProt Q9Y5S1) | inactive: 0.002
TPM1 (UniProt H7BYY1) | inactive: -0.004
TPCN1 isoform 3 (UniProt Q9ULQ1) | inactive: 0.317
TOR2A (UniProt Q5JU69) | inactive: 0.08
TRIP4 (UniProt Q15650) | inactive: -0.026
TOR1AIP1 isoform 3 (UniProt Q5JTV8) | inactive: 0.008
TOR1A (UniProt O14656) | inactive: 0.011
TPI1 (UniProt P60174) | inactive: 0.039
TRIR (UniProt Q9BQ61) | inactive: 0.029
TOP2B (UniProt Q02880) | inactive: 0.019
